Measurements taken from patent US12502362B2, “Inhibitors of nucleotidyltransferase superfamily enzymes as antibiotics” (priority 2017, dated 2025).
Some of these results come from one statement about several compounds together. At least one structure is not confirmed: it was looked up by name or label, or the drawing left a doubt.

Experiments:
[1] = test system: S. aureus and/or S. saprophyticus; assay: MIC80 on S. aureus and/or S. saprophyticus; assay type: cell-based; conditions: either or both organisms
Description: To further characterize the compounds, the minimal inhibitory concentration (MIC80) were determined for selected compounds. MIC80 is defined as the compound concentration at which ≥80% bacterial growth is inhibited compare to untreated controls. Meanwhile, for the selected compounds, cytotoxicity assays (CC50) were performed on a HepG2-derived hepatoblastoma cell line (HEPDES19). […] For the MIC80 measurements, a 1.5 fold dilution series of the compounds was prepared in Mueller-Hinton II broth. […] For CC50 evaluation, soluble tetrazolium dye (MTS) was used to measure mitochondrial toxicity in a human hepatoblastoma cell line (18). The bacteria (E. coli, S. saprophyticus and A. baumannii) used in MIC80 measurements were the same as that in the primary screening, but for Staphylococcus, S. aureus is used primarily because it is a common pathogen in Staphylococcaeae family, while S. saprophyticus is part of the normal human flora. S. aureus (ATCC 29213) is methicillin-sensitive Staphylococcus aureus (MSSA) strain and it was used as a model strain to measure the MIC80.

E. coli (ATCC 35218) = assay type: cell-based
Description: To further characterize the compounds, the minimal inhibitory concentration (MIC80) were determined for selected compounds. MIC80 is defined as the compound concentration at which ≥80% bacterial growth is inhibited compare to untreated controls. Meanwhile, for the selected compounds, cytotoxicity assays (CC50) were performed on a HepG2-derived hepatoblastoma cell line (HEPDES19). […] For CC50 evaluation, soluble tetrazolium dye (MTS) was used to measure mitochondrial toxicity in a human hepatoblastoma cell line (18). The bacteria (E. coli, S. saprophyticus and A. baumannii) used in MIC80 measurements were the same as that in the primary screening, but for Staphylococcus, S. aureus is used primarily because it is a common pathogen in Staphylococcaeae family, while S. saprophyticus is part of the normal human flora.

Compound	MIC80 against S. aureus and/or S. saprophyticus [1]	MIC80 E. coli (E. coli (ATCC 35218))
O=c1cccccc1O [Compound 53]	< 20 µM	
CC(C)C(CO)n1cc(C(=O)O)c(=O)c2cc(Cc3cccc(Cl)c3F)c(F)cc21 (stereo not drawn) [Compound 75]	< 20 µM	
Cc1cc(O)c(=O)c(O)cc1-c1cccc2ccccc12 [Compound 146]	< 20 µM	
CCn1cc(C(=O)O)c(=O)c2cnc(N3CCN(C(=O)NC)CC3)nc21 [Compound 322]		< 30 µM
CC(=O)c1c(C)cc(O)c(=O)c(O)c1-c1ccc2ccccc2c1 [Compound 332]	< 20 µM	
O=C(O)c1ccccc(=O)c1O [Compound 338]	< 20 µM	
O=C(Cc1ccccc1)Sc1cccccc1=O [Compound 680]		< 30 µM
COc1ccc(Cl)cc1C(=O)Sc1cccccc1=O [Compound 681]	< 20 µM	< 30 µM
O=C(Sc1cccccc1=O)c1ccc(C(F)(F)F)cc1 [Compound 682]	< 20 µM	
O=c1cccccc1SSc1cccccc1=O [Compound 685]		< 30 µM
Cc1ccc(S(=O)(=O)Oc2cc(C(C)C)cccc2=O)cc1 [Compound 688]	< 20 µM	
